From US12036225B2, “Use of ibezapolstat to promote microbiome health” (Acurx Pharmaceuticals, Inc., priority 2021, dated 2024)

Columns and labels:
[1] = tested on: gut microbiome; test: Phase I healthy volunteer study: stool microbiome by shotgun metagenomic / 16S sequencing (alpha/beta diversity, taxa); type: in vivo, human; details: healthy subjects
[2] = tested on: primary and secondary bile acids; test: Phase I healthy volunteer study: stool bile acids by LC-MS; type: in vivo, human; details: healthy subjects, vancomycin 125 mg four times daily 10 days
[3] = vancomycin 125 mg four times daily 10 days

## CN[C@H](CC(C)C)C(=O)N[C@H]1C(=O)N[C@@H](CC(N)=O)C(=O)N[C@H]2C(=O)N[C@H]3C(=O)N[C@H](C(=O)N[C@H](C(=O)O)c4cc(O)cc(O)c4-c4cc3ccc4O)[C@H](O)c3ccc(c(Cl)c3)Oc3cc2cc(c3O[C@@H]2O[C@H](CO)[C@@H](O)[C@H](O)[C@H]2O[C@H]2C[C@](C)(N)[C@H](O)[C@H](C)O2)Oc2ccc(cc2Cl)[C@H]1O [Vancomycin, vancomycin, reference compound]
[1]; Vancomycin 125 mg
  Proportional change (mean ± SE): Actinobacteria (phylum): −0.11 ± 0.05
  Proportional change (mean ± SE): Bacteroidetes (phylum): −0.034 ± 0.024
  Proportional change (mean ± SE): Firmicutes (phylum): −0.14 ± 0.058
  Proportional change (mean ± SE): Fusobacteria (phylum): 0.036 ± 0.015
  Proportional change (mean ± SE): Proteobacteria (phylum): 0.23 ± 0.045
  Proportional change (mean ± SE): c_Actinobacteria: −0.074 ± 0.051
  Proportional change (mean ± SE): c_Actinobacteria o_Bifidobacteriales: −0.080 ± 0.051
  Proportional change (mean ± SE): c_Actinobacteria o_Bifidobacteriales f_Bifidobacteriaceae: −0.078 ± 0.051
  Proportional change (mean ± SE): c_Bacilli: 0.30 ± 0.043
  Proportional change (mean ± SE): c_Bacilli o_Lactobacillales: 0.30 ± 0.043
  Proportional change (mean ± SE): c_Bacilli o_Lactobacillales f_Lactobacillaceae: 0.28 ± 0.041
  Proportional change (mean ± SE): c_Coriobacteriia: −0.038 ± 0.015
  Proportional change (mean ± SE): c_Coriobacteriia o_Coriobacteriales: −0.031 ± 0.015
  Proportional change (mean ± SE): c_Coriobacteriia o_Coriobacteriales f_Coriobacteriaceae: −0.032 ± 0.015
  Proportional change (mean ± SE): c_Gammaproteobacteria: 0.21 ± 0.045
  Proportional change (mean ± SE): c_Gammaproteobacteria o_Enterobacterales: 0.17 ± 0.042
  Proportional change (mean ± SE): c_Gammaproteobacteria o_Enterobacterales f_Enterobacteriaceae: 0.17 ± 0.041
[1]; [3]
  Pielous alpha diversity, average change ± standard deviation over the study time period: −0.073 ± 0.024 (0.0016)
  Simpson's alpha diversity, average change ± standard deviation over the study time period: −0.070 ± 0.023 (0.0020)
[1]; vancomycin 125 mg four times daily 10 days, p vs placebo in brackets
  Shannon alpha diversity, average change ± standard deviation over the study time period: −0.36 ± 0.11 (0.0014)
[2]
  1° bile acids, average change ± standard deviation: 963 ± 146 (<0.001) ug/L
  1°:2° bile acid ratio, average change ± standard deviation: 19 ± 3.5 (<0.0001)
  2° bile acids, average change ± standard deviation: −1,266 ± 570 (0.030) ug/L
